Data on one substance can be found in patent publication US12551532B2 (Eli Lilly and Company, priority 2021, dated 2026).

This series in a line: general procedure: Fmoc solid-phase peptide synthesis; Polystyrene Rink Amide MBHA resin LL (Novabiochem, 0.35 meq/g, 100-200 mesh); diisopropylcarbodiimide/Oxyma; PyAOP/DIEA for fatty acid-linker. The note with it: whole synthesis, analytical RP-HPLC, Waters SymmetryShield RP18 column, scale of the general procedure 0.13 mmol, TFA salt, cyclic, sequence written open.

On to “γE-CNTATCATG-Orn-LAE-αMeF-LVRSSN-NMeN-FGPKLPPTEVGSNTY-NH2”, for which the “final HPLC purity” value is listed as above 98.4%.
